For at least one compound, name, drawing or mass did not settle the structure.
How the values were obtained:
stem cell = assay: MTT cell viability assay; type: cell-based; conditions: treated for 5 days, sublethal dose
Description: The effect of HL156A, TMZ, and combined HL156A and temozolomide on the survival of cells was determined by 3-(4,5-dimethylthiazol-2-yl)-2,5-diphenyl tetrazolium bromide (MTT) assay. Cells were seeded in 96-well plates and incubated at 37° C. for 24 hours and treated with HL156A, TMZ, and the combination thereof for 5 days. MTT reagent (10 μl/well) was added, incubated at 37° C. for 4 hours and the absorbance was measured at 490 nm. Each experiment was repeated three times and the results were expressed as % viable cells over control.

GSC11 and X01 = assay: Neuro-glial differentiation (neuronal marker expression); type: cell-based, human
GSC11 = assay: 18F-FDG uptake (cellular metabolism); type: cell-based, human; conditions: 15 minutes incubation, radioactivity normalized to protein content
Description: In order to assess the effect of drugs on the cellular metabolism, ^18F-FDG uptake was examined, GSC11 were plated on 12-well plates with 3×10^5 cells per well for 24 hours. The medium was changed to a glucose-free DMEM medium (Gibco, Invitrogen Korea, Seoul, South Korea) containing approximately 0.5 μCi of ^18F-FDG, followed by incubation for 15 minutes. The cells were washed with phosphate-buffered saline 3 times and 0.1 ml of lysis buffer was added to each well. The lysed cells were then harvested to measure the amount of radioactivity by Wallac 148 Wizard 3 gamma-counter (PerkinElmer Life and, Analytical Science, Shelton, Conn., USA). The radioactivity measured was normalized to protein content.

Cn1nnc2c(C(N)=O)ncn2c1=O [TMZ, temozolomide, reference compound]
cell viability (% viable cells over control) (stem cell): minimal effect
neuro-glial differentiation (expression of olig2, Tuj1, GFAP) (GSC11 and X01): did not promote
18F-FDG uptake (GSC11): markedly decreased

From patent publication US9539238B2, “Pharmaceutical composition comprising a biguanide derivative as an active ingredient for preventing or treating glioblastoma” (ImmunoMet Therapeutics, Inc., priority 2015, dated 2017)
